Taken from: PubChem BioAssay AID652248 (Drosophila RNAi Screening Center, 2013)
Test: 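Genes that govern switching among distinct shape types in fly blood cells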 (primary screen). Cell system: cultured Drosophila hemocytes. Knock-down reagent: long dsRNA against Drosophila genes. Measured: 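Automated microscopy of stained actin, tubulin and nuclei; single-cell shape measures assigned to five reference shape types, giving a score per dsRNA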. Reading the numbers: elongated score: higher = more elongated bipolar cells; normal round score: higher = more normal rounded cells; teardrop score: higher = more small teardrop-shaped cells. Active means: 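a gene counts as active when its knock-down clearly increases the elongated score; a low similarity score was then used to rank the actives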.
Here is a random part of 863 reagents tested. 32 of all reagents (3.7%) count as active. 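Calls also used reproducibility and a similarity ranking whose scores are not deposited; many active genes show only modest elongated scores.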 Names joined by + are all predicted targets of the reagent. Not given: the amount of reagent, the time to read-out.

Gene	amplicon	elongated score, rep 1	elongated score, rep 2	normal round score, rep 1	teardrop score, rep 1	activity call
fwd	DRSC08580	0.51		0.94	-1.31	inactive
fwd	DRSC26680	-0.53		-0.51	0.72	inactive
Ptpmeg	DRSC08684	-0.53		0.23	-0.24	inactive
Ptpmeg	DRSC26348	-0.04		-1.1	1.7	inactive
Srpk79D	DRSC11668	-0.24		-1.43	0.82	inactive
Srpk79D	DRSC11856	-0.53		-0.85	0.83	inactive
Srpk79D	DRSC29962	3.97		-2.54	0.5	inactive
PpN58A	DRSC04642	1.04		-1.19	1.51	inactive
PpN58A	DRSC28243	-0.53		0.08	0.24	inactive
Ack-like	DRSC07500	0.61		-0.49	0.12	inactive
CG7378	DRSC20041	-0.53		0.23	-0.54	inactive
CkIIbeta2	DRSC07361	-0.16		0.25	-1.2	inactive
CG42366	DRSC02760	-0.53		0.32	-0.08	inactive
CG42366	DRSC23297	-0.53		-0.8	-0.6	inactive
Pi3K59F	DRSC04640	1.69		-1.77	1.29	inactive
Pi3K59F	DRSC28890	2.4		-3.15	3.58	inactive
Pp2A-29B	DRSC03400	-0.07		-1.02	1.61	inactive
Pp2A-29B	DRSC28394	9.2		-5.02	3.15	inactive
bma	DRSC10164	0.94		-0.62	0.91	inactive
bma	DRSC28408	0.31		-0.6	0.41	inactive
Abl	DRSC09661	0.43		0.18	-0.16	inactive
Abl	DRSC23306	-0.32		0.68	-1.24	inactive
Pask	DRSC04337	0.02		-0.26	0.25	inactive
Pask	DRSC28829	2.29		-1.48	0.91	inactive
Mvk + CG33672 + spt4	DRSC05356	2.34		-1.06	0.01	inactive
Mvk + CG33672 + spt4	DRSC06628	-0.53		0.19	0.3	inactive
flw	DRSC17992	-0.53		-1.88	2.45	inactive
flw	DRSC18774	-0.53		-3.48	3.84	inactive
flw	DRSC25161	-0.53		-1.05	2.07	inactive
twe	DRSC03628	-0.11		-0.94	0.49	inactive
twe	DRSC27109	-0.15		-0.83	0.67	inactive
Dgkepsilon	DRSC07399	-0.53		0.19	-0.74	inactive
bsk	DRSC03499	-0.14		-1.27	1.52	inactive
Alp4	DRSC14116	-0.25		0.6	-0.75	inactive
hop	DRSC20340	3.13		-0.18	-0.21	active
hop	DRSC23334	2.17		-0.29	-0.16	active
hop	DRSC26551	4.45		-1.79	0.18	active
Lk6	DRSC12867	-0.31		-0.01	-0.86	inactive
Lk6	DRSC16728	-0.29		-1.56	1.73	inactive
Lk6	DRSC24029	-0.28		0.57	-0.33	inactive
CG6800	DRSC16119	0.07		-0.63	1.14	inactive
Phlpp	DRSC02065	0.6		-3.34	4.49	inactive
Phlpp	DRSC22808	-0.53		-0.35	1.07	inactive
mri	DRSC08259	-0.27		0.46	-0.26	inactive
mri	DRSC27787	1.15		-3.37	4.02	inactive

The list goes on; the last 6 above are carried over.
Gene	amplicon	elongated score, rep 1	elongated score, rep 2	normal round score, rep 1	teardrop score, rep 1	activity call
Lk6	DRSC24029	-0.28		0.57	-0.33	inactive
CG6800	DRSC16119	0.07		-0.63	1.14	inactive
Phlpp	DRSC02065	0.6		-3.34	4.49	inactive
Phlpp	DRSC22808	-0.53		-0.35	1.07	inactive
mri	DRSC08259	-0.27		0.46	-0.26	inactive
mri	DRSC27787	1.15		-3.37	4.02	inactive
CycC	DRSC16619	-0.27		0.19	-0.29	inactive
Ptp10D	DRSC20272	-0.53		-4.65	6.3	inactive
inaC	DRSC07632	-0.24		-0.13	0.47	inactive
Sk1	DRSC19774	1.49		-0.45	-0.4	inactive
Asator	DRSC17136	-0.26		0.93	-1.04	inactive
aPKC	DRSC07639	0.88		0.3	0.84	inactive
aPKC	DRSC29936	1.49		0.38	0.79	inactive
CG7362	DRSC16236	0.14		-0.2	0.47	inactive
CG7362	DRSC29548	2.78		-2.42	0.26	inactive
fu	DRSC20333	1.18		-1.72	1.44	inactive
fu	DRSC27965	0.79		-0.27	0.02	inactive
hpRNA:CR18854 + IP3K1	DRSC02218	1.1	0.53	-0.87	0.46	inactive
hpRNA:CR18854 + IP3K1	DRSC23313	0.63	2.1	-4.79	6.34	inactive
Alp1	DRSC11781	-0.38		0.33	-0.91	inactive
sls	DRSC08528	0.95		-0.8	0.41	inactive
sls	DRSC08540	-0.53		0.98	-0.82	inactive
sls	DRSC08670	-0.53		-0.53	-0.09	inactive
Pten	DRSC03402	1.17		-2.62	2.86	active
Pten	DRSC29950	7.75		-4.07	1.52	active
CaMKII	DRSC17214	1.09	-0.34	-2.55	3.42	inactive
CG17698	DRSC11907	-0.53		-0.89	0.54	inactive
Nipped-A	DRSC04882	1.24	0.53	-3.18	0.37	inactive
Nipped-A	DRSC04883	-0.53		-2.28	2.08	inactive
Nipped-A	DRSC04884	-0.53		-2	2.92	inactive
Nipped-A	DRSC22386	0.94		-1.66	1	inactive
CG11597	DRSC09847	-0.53		0.24	0.08	inactive
Gp150	DRSC04618	0.16		-0.53	0.65	inactive
Gp150	DRSC29033	1.88		-2.79	2.18	inactive
Pvr	DRSC03080	2.7		-0.43	1.39	inactive
par-1	DRSC06098	-0.11		-1.86	2.79	active
par-1	DRSC06616	0.31		-1.72	2.01	active
par-1	DRSC07660	5.05		-3.77	3.51	active
par-1	DRSC07661	-0.53		-0.5	1.04	active
CG14297	DRSC14776	0.75		-1.29	1.58	inactive
Uck	DRSC16028	-0.39		-1.29	2.15	inactive
tkv	DRSC03623	-0.53		0.24	-0.03	inactive
tkv	DRSC22606	-0.53		-2.51	3.7	inactive
tkv	DRSC25957	-0.53		-1.05	0.98	inactive
Egfr	DRSC03871	-0.09		0	0.25	inactive
Egfr	DRSC04613	0.4		-1.06	1.52	inactive
Pfrx	DRSC18856	-0.15		0.04	-0.09	inactive
Pfrx	DRSC19315	0.8		-0.6	0.55	inactive
Pfrx	DRSC28602	-0.39		0.12	-1	inactive
